Test results: publication PMC9226220
These are yes or no findings as the source states them, for the method shown. In cells and extracts the contact can be indirect. Here binding means that the protein was enriched with, or labelled near, the bait; the list need not be complete.

By UniProt entry, the sequences of proteins in these tests, tags left out.
UniProt Q61937: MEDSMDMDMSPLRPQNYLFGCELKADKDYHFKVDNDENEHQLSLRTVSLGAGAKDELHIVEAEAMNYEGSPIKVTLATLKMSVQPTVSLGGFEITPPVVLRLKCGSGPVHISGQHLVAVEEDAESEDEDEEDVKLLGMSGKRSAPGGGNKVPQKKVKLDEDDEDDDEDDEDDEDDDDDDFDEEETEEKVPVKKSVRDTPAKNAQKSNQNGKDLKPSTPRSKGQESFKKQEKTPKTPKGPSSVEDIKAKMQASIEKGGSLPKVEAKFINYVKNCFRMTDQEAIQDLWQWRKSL

T1: LIN28A (mouse (endogenous in ES cells)) (UniProt Q8K3Y3)
T1 sequence: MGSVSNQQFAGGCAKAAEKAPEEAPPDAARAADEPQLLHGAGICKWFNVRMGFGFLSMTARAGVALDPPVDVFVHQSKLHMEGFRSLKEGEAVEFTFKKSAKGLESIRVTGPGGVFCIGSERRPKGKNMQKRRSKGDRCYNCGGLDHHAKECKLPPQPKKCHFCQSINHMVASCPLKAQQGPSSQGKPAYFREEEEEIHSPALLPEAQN


Biological target: T1, LIN28A (mouse (endogenous in ES cells))
Assay: affinity purification with mass spectrometry; LIN28A immunoprecipitation followed by mass spectrometry with cytosolic and nuclear fractions of wild-type ES cells

| Molecule | binding |
| --- | --- |
| Nucleophosmin (NPM1) (from UniProt Q61937 1-292) | binds |
| Fibrillarin (FBL) (protein, UniProt P35550 1-327) MKPGFSPRGGGFGGRGGFGDRGGRGGGRGGRGGFGGGRGGFGGGGRGRGGGGGGFRGRGGGGGRGGGFQSGGNRGRGGGRGGKRGNQSGKNVMVEPHRHEGVFICRGKEDALVTKNLVPGESVYGEKRVSISEGDDKIEYRAWNPFRSKLAAAILGGVDQIHIKPGAKVLYLGAASGTTVSHVSDIVGPDGLVYAVEFSHRSGRDLINLAKKRTNIIPVIEDARHPHKYRMLIAMVDVIFADVAQPDQTRIVALNAHTFLRNGGHFVISIKANCIDSTASAEAVFASEVKKMQQENMKPQEQLTLEPYERDHAVVVGVYRPPPKVKN | binds |
